Data source: PubChem BioAssay AID1224828 (NIAID, 2016)
Shown is an unselected part of about 17,000 reagents tested. 762 of them (4.5%) were called active. 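Active calls include both raised and lowered p65 entry, mostly lowered; wells with fewer than 50 cells lack a z-score.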 Raw values vary from plate to plate and are shown uncorrected. Entries without a mark were called inactive. The numbers tell different reagents against one gene apart.

Assay: 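Knock-downs that increase or decrease LPS-induced p65 nuclear translocation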 (primary screen)
Cells: mouse RAW264.7 G9 macrophage reporter cells (GFP-p65, Tnf promoter-mCherry)
Reagents: siRNA pool against mouse genes, 100 nM
Duration: 2 days siRNA transfection, then 40 min LPS before fixation
Challenge: LPS (Salmonella minnesota R595) at 10 ng/ml
Measured: 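Microscopy ratio of nuclear to perinuclear-ring GFP-p65 signal, scaled to the plate median; gene score is the average of two replicate robust z-scores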
Direction: p65 translocation robust z-score: higher = more nuclear NF-kappaB p65 after LPS than the plate median; nuclear/cytoplasmic p65 ratio: higher = more nuclear NF-kappaB p65
Call rule: 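Called active when z exceeds 3.3 or falls under -1.56 (median of Tlr4 controls), giving activity score of at least 50; no calls for control wells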
Calls: active = hit (p65 shift raised or lowered); inactive = no clear change

The opening 6 entries as a preview:
gene | pool no. | p65 translocation robust z-score | nuclear/cytoplasmic p65 ratio, rep 1 | nuclear/cytoplasmic p65 ratio, rep 2 | low cell count flag
Mfap3l | 1 | – | 1.19 | 1.33 | fewer than 50 cells per well; well left out of scoring
Odf2l | 1 | -0.06 | 1.44 | 1.66 | enough cells to score
Defb5 | 1 | 0.74 | 1.61 | 1.72 | enough cells to score
Msrb3 | 1 | -0.11 | 1.49 | 1.6 | enough cells to score
Cldn17 | 1 | -1.03 | 1.42 | 1.63 | enough cells to score
Kif13a | 1 | -0.13 | 1.43 | 1.39 | enough cells to score

Main list, from the first entry:
gene | pool no. | p65 translocation robust z-score | nuclear/cytoplasmic p65 ratio, rep 1 | nuclear/cytoplasmic p65 ratio, rep 2 | low cell count flag
Mfap3l | 1 | – | 1.19 | 1.33 | fewer than 50 cells per well; well left out of scoring
Odf2l | 1 | -0.06 | 1.44 | 1.66 | enough cells to score
Defb5 | 1 | 0.74 | 1.61 | 1.72 | enough cells to score
Msrb3 | 1 | -0.11 | 1.49 | 1.6 | enough cells to score
Cldn17 | 1 | -1.03 | 1.42 | 1.63 | enough cells to score
Kif13a | 1 | -0.13 | 1.43 | 1.39 | enough cells to score
Anxa9 | 1 | 0.6 | 1.77 | 1.65 | enough cells to score
Adgra1 | 1 | 0.74 | 1.69 | 1.64 | enough cells to score
Fam167b | 1 | -1.58 (active) | 1.37 | 1.54 | enough cells to score
Plac9 | 1 | -1.88 (active) | 1.51 | 1.2 | enough cells to score
Sdf2 | 1 | 0.39 | 1.56 | 1.19 | enough cells to score
Stimate | 1 | – | 1.1 | 1.27 | fewer than 50 cells per well; well left out of scoring
Atp4a | 1 | -1.59 (active) | 1.18 | 1.35 | enough cells to score
Copg2 | 1 | -0.28 | 1.67 | 1.59 | enough cells to score
Cyp4v3 | 1 | 1.48 | 1.76 | 2.06 | enough cells to score
Ttc39a | 1 | – | 1.39 | 1.31 | fewer than 50 cells per well; well left out of scoring
Senp5 | 1 | -0.11 | 1.35 | 1.28 | enough cells to score
Uso1 | 1 | -0.71 | 1.35 | 1.1 | enough cells to score
Zc3hav1l | 1 | 0.7 | 1.67 | 1.64 | enough cells to score
Sptssb | 1 | -0.8 | 1.41 | 1.36 | enough cells to score
Pan3 | 1 | – | 1.6 | 2.04 | fewer than 50 cells per well; well left out of scoring
Washc5 | 1 | -0.12 | 1.47 | 1.33 | enough cells to score
Akap12 | 1 | 0.37 | 1.56 | 1.79 | enough cells to score
Uts2b | 1 | – | 1.25 | 1.08 | fewer than 50 cells per well; well left out of scoring
Dusp7 | 1 | -0.6 | 1.59 | 1.31 | enough cells to score
Tk1 | 1 | 0.45 | 1.75 | 1.45 | enough cells to score
Zfp14 | 1 | – | 1.04 | 1.03 | fewer than 50 cells per well; well left out of scoring
Gpr6 | 1 | 0.94 | 1.42 | 1.72 | enough cells to score
Prps2 | 1 | -0.87 | 1.54 | 1.28 | enough cells to score
Nipa1 | 1 | – | 1.59 | 1.22 | fewer than 50 cells per well; well left out of scoring
Ago3 | 1 | 0.92 | 1.61 | 1.46 | enough cells to score
Dtd2 | 1 | – | 1.29 | 1.47 | fewer than 50 cells per well; well left out of scoring
Tdpoz1 | 1 | -0.52 | 1.34 | 1.13 | enough cells to score
Thap4 | 1 | 0.32 | 1.25 | 1.23 | enough cells to score
Lilrb4a | 1 | 0.37 | 1.45 | 1.46 | enough cells to score
Foxd3 | 1 | 0.48 | 1.42 | 1.5 | enough cells to score
Mknk1 | 1 | 0.5 | 1.65 | 1.53 | enough cells to score
Sulf2 | 1 | 0.02 | 1.54 | 1.57 | enough cells to score
Fblim1 | 1 | -0.46 | 1.45 | 1.4 | enough cells to score
Ccnd2 | 1 | 0.64 | 1.53 | 1.48 | enough cells to score
Pole2 | 1 | 0.36 | 1.43 | 1.25 | enough cells to score
Tlr8 | 1 | 0.04 | 1.46 | 1.59 | enough cells to score
Arx | 1 | 1.87 | 1.88 | 1.92 | enough cells to score
Ccnt2 | 1 | 0.53 | 1.24 | 1.44 | enough cells to score
Pcp2 | 1 | 1.13 | 1.59 | 1.29 | enough cells to score
Trdv2-2 | 1 | -0.46 | 1.38 | 1.4 | enough cells to score
Gkn2 | 1 | – | 1.18 | 1.22 | fewer than 50 cells per well; well left out of scoring
Wnt7b | 1 | -0.19 | 1.55 | 1.42 | enough cells to score
Ufd1 | 1 | -1.63 (active) | 1.33 | 1.23 | enough cells to score
Unc13a | 1 | 1.94 | 1.86 | 2.13 | enough cells to score
Ddx6 | 1 | 0.93 | 1.62 | 1.49 | enough cells to score
Or5h18 | 1 | 0.26 | 1.65 | 1.54 | enough cells to score
Inpp5j | 1 | 0.37 | 1.51 | 1.49 | enough cells to score
Ypel3 | 1 | -0.12 | 1.45 | 1.51 | enough cells to score
Afg2a | 1 | 1.65 | 1.6 | 1.45 | enough cells to score
Vmn2r89 | 1 | – | 1.44 | 1.29 | fewer than 50 cells per well; well left out of scoring
Vmn2r89 | 2 | 0.83 | 1.58 | 1.32 | enough cells to score
Echdc2 | 1 | – | 1.37 | 1.74 | fewer than 50 cells per well; well left out of scoring
Popdc3 | 1 | 2.36 | 1.66 | 1.5 | enough cells to score
